No constants are given. Whether binding was seen depends on the method and setting. Some results given as binding are weak or reduced against the parent protein; the word gives no strength. Sequences can lack the tags named with a protein.

By UniProt entry, the sequences of proteins in these tests, tags left out. Where a name states a change or a piece, a line headed by the entry shows the natural chain unless it says otherwise. Chains listed by the source or under a name are the forms on record and can include a tag or linker.
c-agrin4,0 (P25304, form named): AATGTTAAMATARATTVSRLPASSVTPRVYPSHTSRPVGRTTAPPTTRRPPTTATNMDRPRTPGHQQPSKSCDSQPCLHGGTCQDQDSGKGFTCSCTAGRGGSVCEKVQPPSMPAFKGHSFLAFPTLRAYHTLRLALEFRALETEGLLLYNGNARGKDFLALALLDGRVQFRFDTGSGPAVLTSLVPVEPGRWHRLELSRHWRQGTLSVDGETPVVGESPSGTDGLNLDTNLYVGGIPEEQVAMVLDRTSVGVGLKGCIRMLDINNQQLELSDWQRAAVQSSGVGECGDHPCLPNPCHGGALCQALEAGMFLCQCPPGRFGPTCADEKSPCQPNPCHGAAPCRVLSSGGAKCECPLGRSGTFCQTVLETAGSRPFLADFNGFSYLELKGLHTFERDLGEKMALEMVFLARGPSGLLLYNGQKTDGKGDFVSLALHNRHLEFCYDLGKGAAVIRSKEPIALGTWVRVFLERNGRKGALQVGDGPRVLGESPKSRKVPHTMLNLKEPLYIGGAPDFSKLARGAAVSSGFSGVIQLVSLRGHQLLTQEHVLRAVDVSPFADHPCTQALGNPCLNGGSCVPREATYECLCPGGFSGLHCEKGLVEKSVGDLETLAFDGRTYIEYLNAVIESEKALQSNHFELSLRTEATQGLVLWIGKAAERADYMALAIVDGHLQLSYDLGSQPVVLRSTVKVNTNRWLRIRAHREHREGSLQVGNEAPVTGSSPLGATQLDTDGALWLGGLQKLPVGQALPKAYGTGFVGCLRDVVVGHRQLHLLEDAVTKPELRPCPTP

For the test, the target named is c-agrin4,0 (UniProt P25304). Briefly: MuSK-Fc bound to the surface of differentiated C2C12 myotubes with agrin conditioned medium (10 nM), detected with radio-iodinated anti-human IgG; complex forms only on myotubes (myotube-specific accessory component), not on fibroblasts or myoblasts.

B1: MuSK-Fc (ectodomain of rat MuSK fused to the Fc portion of human immunoglobulin G1) (Fc fusion, not shown: small tags and cut ends)
chain: GTEKLPKAPVITTPLETVDALVEEVATFMCAVESYPQPEISWTRNKILIKLFDTRYSIRENGQLLTILSVEDSDDGIYCCTANNGVGGAVESCGALQVKMKPKITRPPINVKIIEGLKAVLPCTTMGNPKPSVSWIKGDSALRENSRIAVLESGSLRIHNVQKEDAGQYRCVAKNSLGTAYSKLVKLEVEVFARILRAPESHNVTFGSFVTLRCTAIGMPVPTISWIENGNAVSSGSIQENVKDRVIDSRLQLFITKPGLYTCIATNKHGEKFSTAKAAATVSIAEWSKSQKESKGYCAQYRGEVCDAVLVKDSLVFFNTSYPDPEEAQELLIHTAWNELKAVSPLCRPAAEALLCNHLFQECSPGVLPTPMPICREYCLAVKELFCAKEWLAMEGKTHRGLYRSGMHFLPVPECSKLPSMHQDPTACTRLPYLDYKKENITTFPSITSSKPSVDIPNLPASTSSFAVSPAYSGPG
Turning to B1, the binding result is “binds”.
